Measurements as given in PMC7385130.
No constants are given. Whether binding was seen depends on the method and setting. In cells and extracts the contact can be indirect. Some results given as binding are weak or reduced against the parent protein; the word gives no strength.

Sequences of proteins named here, by UniProt entry; tags and fusion partners are left off. A change or cut given only in a name is not applied to a line headed by its entry.
UniProt Q13546: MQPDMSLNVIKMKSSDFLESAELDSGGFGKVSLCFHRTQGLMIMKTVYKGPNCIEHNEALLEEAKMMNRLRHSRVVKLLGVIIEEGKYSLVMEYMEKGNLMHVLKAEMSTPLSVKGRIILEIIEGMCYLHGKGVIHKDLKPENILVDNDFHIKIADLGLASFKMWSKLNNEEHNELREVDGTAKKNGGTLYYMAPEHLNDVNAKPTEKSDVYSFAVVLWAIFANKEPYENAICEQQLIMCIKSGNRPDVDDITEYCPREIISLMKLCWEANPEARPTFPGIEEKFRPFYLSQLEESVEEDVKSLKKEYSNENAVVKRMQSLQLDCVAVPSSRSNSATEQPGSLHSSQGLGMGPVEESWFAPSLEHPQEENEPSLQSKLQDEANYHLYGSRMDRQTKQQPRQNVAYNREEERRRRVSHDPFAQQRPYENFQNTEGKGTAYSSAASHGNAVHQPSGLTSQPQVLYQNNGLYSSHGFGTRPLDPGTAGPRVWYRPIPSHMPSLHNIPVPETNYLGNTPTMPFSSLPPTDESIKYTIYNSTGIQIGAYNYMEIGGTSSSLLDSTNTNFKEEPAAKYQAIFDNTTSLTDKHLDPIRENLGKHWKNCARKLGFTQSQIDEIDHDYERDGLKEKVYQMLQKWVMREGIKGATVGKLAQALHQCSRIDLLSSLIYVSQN
UniProt Q9H1Y0: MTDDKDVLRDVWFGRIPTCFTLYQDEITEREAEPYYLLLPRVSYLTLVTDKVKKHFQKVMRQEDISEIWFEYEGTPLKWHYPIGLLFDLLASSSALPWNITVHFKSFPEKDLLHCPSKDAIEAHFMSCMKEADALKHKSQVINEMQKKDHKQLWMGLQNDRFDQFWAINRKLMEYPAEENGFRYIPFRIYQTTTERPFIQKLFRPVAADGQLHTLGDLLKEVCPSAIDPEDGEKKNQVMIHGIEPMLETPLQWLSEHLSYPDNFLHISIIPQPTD
UniProt Q9Y572: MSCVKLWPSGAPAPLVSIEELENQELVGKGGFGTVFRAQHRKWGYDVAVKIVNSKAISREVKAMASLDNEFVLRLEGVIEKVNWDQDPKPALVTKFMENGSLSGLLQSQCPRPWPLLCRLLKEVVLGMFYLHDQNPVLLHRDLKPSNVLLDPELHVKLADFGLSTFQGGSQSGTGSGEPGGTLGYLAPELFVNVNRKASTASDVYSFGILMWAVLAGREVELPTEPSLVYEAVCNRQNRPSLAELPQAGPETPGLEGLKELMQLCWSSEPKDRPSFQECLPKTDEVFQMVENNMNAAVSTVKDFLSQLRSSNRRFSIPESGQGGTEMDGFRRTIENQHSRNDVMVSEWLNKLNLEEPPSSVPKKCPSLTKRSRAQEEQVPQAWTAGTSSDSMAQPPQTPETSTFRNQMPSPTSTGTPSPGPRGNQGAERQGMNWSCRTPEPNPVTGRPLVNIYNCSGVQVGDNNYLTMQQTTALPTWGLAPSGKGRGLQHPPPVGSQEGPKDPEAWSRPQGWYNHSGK

Biological target: receptor-interacting protein kinase (RIPK) 1 (human (endogenous in monocyte derived macrophages)) (UniProt Q13546)
Assay: co-IP

**Q.** Which binding does the source give for “ATG12–ATG5 complex (from UniProt Q9H1Y0 1-275; O94817 1-140)” here?
**A.** binds

**Q.** Which binding does the source give for “receptor-interacting protein kinase (RIPK) 3 (from UniProt Q9Y572 1-518)” here?
**A.** binds

**Q.** “sequestosome 1 (from UniProt Q13501 1-440)” was tested. Which binding did it give?
**A.** binds
